# Source: publication PMC5679597
# These are yes or no findings as the source states them, for the method shown. In cells and extracts the contact can be indirect. A yes stands for co-enrichment or nearness to the bait. Other partners may have been found. Tags and fused reporters may be left off the sequences shown.
# T1: GFP-tagged LNX1p80 (Ligand of Numb protein X1, p80 isoform) (mouse) (UniProt O70263)
# T1 sequence: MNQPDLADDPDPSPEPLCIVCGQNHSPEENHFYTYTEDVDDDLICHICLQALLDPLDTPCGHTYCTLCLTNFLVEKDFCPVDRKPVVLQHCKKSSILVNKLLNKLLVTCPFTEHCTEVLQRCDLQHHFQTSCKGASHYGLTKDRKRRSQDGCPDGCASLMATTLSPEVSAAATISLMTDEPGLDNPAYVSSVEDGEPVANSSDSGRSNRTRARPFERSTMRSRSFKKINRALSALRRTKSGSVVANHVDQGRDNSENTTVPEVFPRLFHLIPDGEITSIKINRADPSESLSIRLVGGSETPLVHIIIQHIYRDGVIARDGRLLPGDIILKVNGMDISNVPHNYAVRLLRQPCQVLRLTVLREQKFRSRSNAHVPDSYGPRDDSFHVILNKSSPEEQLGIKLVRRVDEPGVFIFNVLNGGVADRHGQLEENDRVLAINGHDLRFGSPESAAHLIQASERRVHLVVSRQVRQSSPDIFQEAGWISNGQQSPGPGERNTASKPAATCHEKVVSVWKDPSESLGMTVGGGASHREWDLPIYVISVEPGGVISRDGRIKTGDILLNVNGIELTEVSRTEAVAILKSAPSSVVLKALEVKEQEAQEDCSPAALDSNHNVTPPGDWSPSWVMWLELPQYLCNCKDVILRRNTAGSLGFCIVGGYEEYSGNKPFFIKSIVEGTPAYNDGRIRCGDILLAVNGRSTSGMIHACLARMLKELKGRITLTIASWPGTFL
# Target: T1, GFP-tagged LNX1p80 (Ligand of Numb protein X1, p80 isoform) (mouse)
# Assay: affinity purification with mass spectrometry; GFP-LNX1p80 complexes purified on magnetic GFP-Trap beads from stably transfected HEK 293 cells; gel slices, nano-LC MS/MS; proteins also found with GFP alone removed; Mascot protein score cut-off 70
row,binding,Binder
1,binds,"Kinesin-like protein KIF7, endogenous (protein, UniProt Q2M1P5 1-1343) MGLEAQRLPGAEEAPVRVALRVRPLLPKELLHGHQSCLQVEPGLGRVTLGRDRHFGFHVVLAEDAGQEAVYQACVQPLLEAFFEGFNATVFAYGQTGSGKTYTMGEASVASLLEDEQGIVPRAMAEAFKLIDENDLLDCLVHVSYLEVYKEEFRDLLEVGTASRDIQLREDERGNVVLCGVKEVDVEGLDEVLSLLEMGNAARHTGATHLNHLSSRSHTVFTVTLEQRGRAPSRLPRPAPGQLLVSKFHFVDLAGSERVLKTGSTGERLKESIQINSSLLALGNVISALGDPQRRGSHIPYRDSKITRILKDSLGGNAKTVMIACVSPSSSDFDETLNTLNYASRAQNIRNRATVNWRPEAERPPEETASGARGPPRHRSETRIIHRGRRAPGPATASAAAAMRLGAECARYRACTDAAYSLLRELQAEPGLPGAAARKVRDWLCAVEGERSALSSASGPDSGIESASVEDQAAQGAGGRKEDEGAQQLLTLQNQVARLEEENRDFLAALEDAMEQYKLQSDRLREQQEEMVELRLRLELVRPGWGGPRLLNGLPPGSFVPRPHTAPLGGAHAHVLGMVPPACLPGDEVGSEQRGEQVTNGREAGAELLTEVNRLGSGSSAASEEEEEEEEPPRRTLHLRRNRISNCSQRAGARPGSLPERKGPELCLEELDAAIPGSRAVGGSKARVQARQVPPATASEWRLAQAQQKIRELAINIRMKEELIGELVRTGKAAQALNRQHSQRIRELEQEAEQVRAELSEGQRQLRELEGKELQDAGERSRLQEFRRRVAAAQSQVQVLKEKKQATERLVSLSAQSEKRLQELERNVQLMRQQQGQLQRRLREETEQKRRLEAEMSKRQHRVKELELKHEQQQKILKIKTEEIAAFQRKRRSGSNGSVVSLEQQQKIEEQKKWLDQEMEKVLQQRRALEELGEELHKREAILAKKEALMQEKTGLESKRLRSSQALNEDIVRVSSRLEHLEKELSEKSGQLRQGSAQSQQQIRGEIDSLRQEKDSLLKQRLEIDGKLRQGSLLSPEEERTLFQLDEAIEALDAAIEYKNEAITCRQRVLRASASLLSQCEMNLMAKLSYLSSSETRALLCKYFDKVVTLREEQHQQQIAFSELEMQLEEQQRLVYWLEVALERQRLEMDRQLTLQQKEHEQNMQLLLQQSRDHLGEGLADSRRQYEARIQALEKELGRYMWINQELKQKLGGVNAVGHSRGGEKRSLCSEGRQAPGNEDELHLAPELLWLSPLTEGAPRTREETRDLVHAPLPLTWKRSSLCGEEQGSPEELRQREAAEPLVGRVLPVGEAGLPWNFGPLSKPRRELRRASPGMIDVRKNPL"
2,binds,"Kelch-like protein 11, endogenous (protein, UniProt Q9NVR0 16-708) ASLQVLEMESMETAAAGSAGLAAEVRGSGTVDFGPGPGISAMEASGGDPGPEAEDFECSSHCSELSWRQNEQRRQGLFCDITLCFGGAGGREFRAHRSVLAAATEYFTPLLSGQFSESRSGRVEMRKWSSEPGPEPDTVEAVIEYMYTGRIRVSTGSVHEVLELADRFLLIRLKEFCGEFLKKKLHLSNCVAIHSLAHMYTLSQLALKAADMIRRNFHKVIQDEEFYTLPFHLIRDWLSDLEITVDSEEVLFETVLKWVQRNAEERERYFEELFKLLRLSQMKPTYLTRHVKPERLVANNEVCVKLVADAVERHALRAENIQSGTCQHPTSHVSLLPRYGQNMDVIMVIGGVSEGGDYLSECVGYFVDEDRWVNLPHIHNHLDGHAVAVTESYVYVAGSMEPGFAKTVERYNPNLNTWEHVCSLMTRKHSFGLTEVKGKLYSIGGHGNFSPGFKDVTVYNPELDKWHNLESAPKILRDVKALAIEDRFVYIAARTPVDRDTEDGLKAVITCYDTETRQWQDVESLPLIDNYCFFQMSVVNSNFYQTASCCPKSYCLENEEAVRKIASQVSDEILESLPPEVLSIEGAAICYYKDDVFIIGGWKNSDDIDKQYRKEAYRYCAERKRWMLLPPMPQPRCRATACHVRIPYRYLHGTQRYPMPQNLMWQKDRIRQMQEIHRHALNMRRVPSSQIEC"

row,Binder,binding
1,"Isoleucyl-tRNA synthetase, cytoplasmic, endogenous (protein, UniProt P41252 1-1262) MLQQVPENINFPAEEEKILEFWTEFNCFQECLKQSKHKPKFTFYDGPPFATGLPHYGHILAGTIKDIVTRYAHQSGFHVDRRFGWDCHGLPVEYEIDKTLGIRGPEDVAKMGITEYNNQCRAIVMRYSAEWKSTVSRLGRWIDFDNDYKTLYPQFMESVWWVFKQLYDKGLVYRGVKVMPFSTACNTPLSNFESHQNYKDVQDPSVFVTFPLEEDETVSLVAWTTTPWTLPSNLAVCVNPEMQYVKIKDVARGRLLILMEARLSALYKLESDYEILERFPGAYLKGKKYRPLFDYFLKCKENGAFTVLVDNYVKEEEGTGVVHQAPYFGAEDYRVCMDFNIIRKDSLPVCPVDASGCFTTEVTDFAGQYVKDADKSIIRTLKEQGRLLVATTFTHSYPFCWRSDTPLIYKAVPSWFVRVENMVDQLLRNNDLCYWVPELVREKRFGNWLKDARDWTISRNRYWGTPIPLWVSDDFEEVVCIGSVAELEELSGAKISDLHRESVDHLTIPSRCGKGSLHRISEVFDCWFESGSMPYAQVHYPFENKREFEDAFPADFIAEGIDQTRGWFYTLLVLATALFGQPPFKNVIVNGLVLASDGQKMSKRKKNYPDPVSIIQKYGADALRLYLINSPVVRAENLRFKEEGVRDVLKDVLLPWYNAYRFLIQNVLRLQKEEEIEFLYNENTVRESPNITDRWILSFMQSLIGFFETEMAAYRLYTVVPRLVKFVDILTNWYVRMNRRRLKGENGMEDCVMALETLFSVLLSLCRLMAPYTPFLTELMYQNLKVLIDPVSVQDKDTLSIHYLMLPRVREELIDKKTESAVSQMQSVIELGRVIRDRKTIPIKYPLKEIVVIHQDPEALKDIKSLEKYIIEELNVRKVTLSTDKNKYGIRLRAEPDHMVLGKRLKGAFKAVMTSIKQLSSEELEQFQKTGTIVVEGHELHDEDIRLMYTFDQATGGTAQFEAHSDAQALVLLDVTPDQSMVDEGMAREVINRIQKLRKKCNLVPTDEITVYYKAKSEGTYLNSVIESHTEFIFTTIKAPLKPYPVSPSDKVLIQEKTQLKGSELEITLTRGSSLPGPACAYVNLNICANGSEQGGVLLLENPKGDNRLDLLKLKSVVTSIFGVKNTELAVFHDETEIQNQTDLLSLSGKTLCVTAGSAPSLINSSSTLLCQYINLQLLNAKPQECLMGTVGTLLLENPLGQNGLTHQGLLYEAAKVFGLRSRKLKLFLNETQTQEITEDIPVKTLNMKTVYVSVLPTTADF",binds
